Data reported in article PMC8887895.
These are yes or no findings as the source states them, for the method shown. Binding seen in cells or lysates may run through a third protein. Some entries that bind do so weakly or less than the wild type. Sequences can lack the tags named with a protein.

Sequences of proteins named here, by UniProt entry; tags and fusion partners are left off.
UniProt P32121: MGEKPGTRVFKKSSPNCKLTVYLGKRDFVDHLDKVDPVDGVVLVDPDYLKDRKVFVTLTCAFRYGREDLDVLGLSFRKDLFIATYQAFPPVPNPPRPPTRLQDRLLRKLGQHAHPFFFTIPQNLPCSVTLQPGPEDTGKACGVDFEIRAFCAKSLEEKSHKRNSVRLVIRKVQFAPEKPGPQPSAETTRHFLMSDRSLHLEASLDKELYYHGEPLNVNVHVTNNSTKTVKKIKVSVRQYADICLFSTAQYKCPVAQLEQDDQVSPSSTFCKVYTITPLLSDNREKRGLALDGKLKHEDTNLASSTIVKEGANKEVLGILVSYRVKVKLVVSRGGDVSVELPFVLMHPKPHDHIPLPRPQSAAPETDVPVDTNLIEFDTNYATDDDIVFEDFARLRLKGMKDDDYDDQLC

Target: T1, wild-type human FFA2 tagged with eYFP at its C terminus (human) (UniProt O15552)
T1 sequence: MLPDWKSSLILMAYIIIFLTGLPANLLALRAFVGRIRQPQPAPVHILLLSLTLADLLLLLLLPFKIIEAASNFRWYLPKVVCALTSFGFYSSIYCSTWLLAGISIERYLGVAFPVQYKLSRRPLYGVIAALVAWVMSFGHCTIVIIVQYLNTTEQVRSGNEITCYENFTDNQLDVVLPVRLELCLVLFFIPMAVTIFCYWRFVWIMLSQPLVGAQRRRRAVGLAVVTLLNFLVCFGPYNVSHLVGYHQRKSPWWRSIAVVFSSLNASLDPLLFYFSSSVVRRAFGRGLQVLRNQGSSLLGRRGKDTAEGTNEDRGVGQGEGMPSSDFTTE
Test: FRET or BRET; BRET in HEK-293T cells cotransfected with receptor-eYFP and β-arrestin-2-Renilla luciferase (ratio 4:1), 48 hr after transfection; coelenterazine-h 5 µM; interaction promoted by added agonist (sorbic acid or MOMBA for hFFA2-DREADD, C3 for wild-type hFFA2); net BRET 530/485 nm

For “β-arrestin-2-Renilla-luciferase (from UniProt P32121 1-409)”, the binding was “binds”.
